# Laboratory results published in the supplement of paper PMC9135407.
# “And” between values parts separate entries of the source, which are not always exact repeats. Equal entries are not always repeated. Structures can show the parent of a compound that is named as a salt. ± gives the standard deviation of the averaged measurements. This is one part of the list. Plates or batches differ in their baseline, so values are only roughly comparable.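 Assay uses culture-activated primary human stellate myofibroblasts; lipid droplet recovery indicates inactivation. Measured: proportion of Hoechst-counted cells over a plate-specific Bodipy cutoff, duplicate wells, DMSO and nortriptyline as per-plate negative and positive controls. A hit scores, control-normalized, above the plate's top-tenth-percentile nortriptyline wells or ranks among its three best wells. Final well concentrations not reported.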
# Test system: primary human hepatic stellate cells (donor 1)
# Assay: percent Bodipy-positive cells; higher = more lipid droplet accumulation
# Details: 48 h
# [1] = library stock concentration: 10 mM
# [2] = library stock concentration: 2 mM
# [3] = library stock concentration: 3.33 mM
# [4] = library stock concentration: 1 mM
# [5] = library stock concentration: 80 uM
# [6] = library stock concentration: 400 uM
smiles,measurement,setting,value
CN(CCCOc1ccc(Cc2ccccc2)cc1)CCC(=O)O,percent Bodipy-positive cells,[1],19 ± 1.5%
CN1CCC(CNc2ccc3ncc(-c4cccc(OC(F)(F)F)c4)n3n2)CC1,percent Bodipy-positive cells,[2],88.56 ± 0.8%
CC(C)(C)c1cc(/C=C(\C#N)C(N)=S)cc(C(C)(C)C)c1O [Tyrphostin AG 879],percent Bodipy-positive cells,[3],13 ± 0.73%
same,percent Bodipy-positive cells,[1],20.6% and 43.9%
O=C(O)CCC/C=C/C[C@@H]1[C@@H](/C=C/[C@@H](O)COc2cccc(C(F)(F)F)c2)[C@H](O)C[C@@H]1O [5-trans Fluprostenol],percent Bodipy-positive cells,[4],19.8 ± 0.25%
CCC(=O)NCC[C@@H]1CCc2ccc3c(c21)CCO3 [Ramelteon],percent Bodipy-positive cells,[3],28.45 ± 0.24%
same,percent Bodipy-positive cells,library stock concentration: 7.7 mM,16.9 ± 6.3%
Cc1cc(CS(=O)(=O)c2ccccc2)cc(OCc2ccc(CN3CCC[C@@H]3CO)cc2)c1,percent Bodipy-positive cells,[1],95.81 ± 0.77%
COC1=CC(=O)C[C@@H](C)[C@]12Oc1c(Cl)c(OC)cc(OC)c1C2=O [Griseofulvin],percent Bodipy-positive cells,,12.5 ± 0.58%
same,percent Bodipy-positive cells,[3],7.79 ± 1.1%
same,percent Bodipy-positive cells,library stock concentration: 5.7 mM,3.14 ± 0.45%
CN(C)CCC(c1ccc(Cl)cc1)c1ccccn1 (stereo not given) [Chlorpheniramine],percent Bodipy-positive cells,[1],32.1 ± 1.2%
CN(C)CCC(c1ccc(Cl)cc1)c1ccccn1 (stereo not given) [Chlorpheniramine maleate],percent Bodipy-positive cells,,52 ± 2.5%
same,percent Bodipy-positive cells,library stock concentration: 7.3 mM,23.1 ± 1.6%
CN(C)CCC(c1ccc(Cl)cc1)c1ccccn1 (stereo not given) [Chlorpheniramine Maleate],percent Bodipy-positive cells,[3],24.4 ± 2.5%
same,percent Bodipy-positive cells,[1],40.6 ± 9.1%
CC[C@]1(O)C[C@H]2CN(CCc3c([nH]c4ccccc34)[C@@](C(=O)OC)(c3cc4c(cc3OC)N(C)[C@H]3[C@@](O)(C(N)=O)[C@H](O)[C@]5(CC)C=CCN6CC[C@]43[C@@H]65)C2)C1.O=S(=O)(O)O,percent Bodipy-positive cells,library stock concentration: 9.7 mM,97.36 ± 0.4%
COc1cc(N)c(Cl)cc1C(=O)NC1CCN(CCCOc2ccc(F)cc2)CC1OC (stereo not given) [Cisapride],percent Bodipy-positive cells,,54.9 ± 2.6%
same,percent Bodipy-positive cells,[1],34.1 ± 14%
C[C@H](O)C(=O)C1=Nc2c(nc(N)[nH]c2=O)NC1 [Sepiapterin],percent Bodipy-positive cells,[1],18.9 ± 0.2%
CCCCCCCCC=CCCCCCCCCCCCC(N)=O [13-Docosenamide],percent Bodipy-positive cells,[4],7.55 ± 3%
CN1Cc2sccc2C(c2ccc(O)c(O)c2)C1 (stereo not given),percent Bodipy-positive cells,[1],36 ± 4.7%
COc1ccccc1N1CCN(CCN2C(=O)CC3(CCCC3)CC2=O)CC1,percent Bodipy-positive cells,[3],5.7 ± 0.7%
same,percent Bodipy-positive cells,[1],14.2 ± 0.21%
CCN(CC)CCCCC1CCN(CC(=O)N2c3ccccc3C(=O)Nc3cccnc32)CC1,percent Bodipy-positive cells,[1],25.6 ± 3.8%
OCC(O)CN1CCN(c2ccccc2)CC1 (stereo not given) [Dropropizine],percent Bodipy-positive cells,[3],8.36 ± 1.7%
same,percent Bodipy-positive cells,[1],23.7% and 28.4%
NC1=N[C@@]2(c3cc(NC(=O)c4ccc(F)cn4)ccc3F)COC[C@H]2CS1,percent Bodipy-positive cells,[3],15.5 ± 7.4%
same,percent Bodipy-positive cells,[1],44.1 ± 2.4%
CCCCC[C@H](O)/C=C/[C@@H]1[C@H]2C/C(=C/CCCC(=O)O)O[C@H]2C[C@H]1O [Prostaglandin I2],percent Bodipy-positive cells,[4],16.1 ± 15%
CCCCC[C@H](O)/C=C/[C@@H]1[C@H]2C/C(=C/CCCC(=O)O)O[C@H]2C[C@H]1O [Prostaglandin I2 (sodium salt)],percent Bodipy-positive cells,[4],13 ± 0.48%
COc1ccc(COc2cc3oc(=O)c4cc(C(C)O)ccc4c3cc2OC)cc1 (stereo not given),percent Bodipy-positive cells,[5],6.7 ± 2.2%
same,percent Bodipy-positive cells,[6],8.44 ± 0.22%
same,percent Bodipy-positive cells,[2],6.97 ± 0.74%
same,percent Bodipy-positive cells,[1],46.2 ± 24%
COc1ccc(COc2cc3oc(=O)c4cc(C(C)O)ccc4c3cc2OC)cc1 (stereo not given) [Palomid 529 (P529)],percent Bodipy-positive cells,[3],12.8 ± 2.2%
same,percent Bodipy-positive cells,[1],27.6 ± 2.1%
O=C(O)c1ccccc1Nc1cccc(OCc2ccc3ccccc3n2)c1,percent Bodipy-positive cells,[1],11 ± 1.4%
O=C(O)c1ccccc1Nc1cccc(OCc2ccc3ccccc3n2)c1 [SR 2640 hydrochloride],percent Bodipy-positive cells,[1],9.72 ± 5.6%
O=C(O[C@@H]1C[C@@H]2C[C@H]3C[C@H](C1)N2CC3=O)c1c[nH]c2ccccc12 [Dolasetron],percent Bodipy-positive cells,library stock concentration: 6.2 mM,7.05 ± 1.3%
O=C(O[C@@H]1C[C@@H]2C[C@H]3C[C@H](C1)N2CC3=O)c1c[nH]c2ccccc12,percent Bodipy-positive cells,library stock concentration: 10.4 mM,9.71 ± 2%
CC(=O)NCCc1c(Cc2ccccc2)[nH]c2ccccc12 [Luzindole],percent Bodipy-positive cells,[1],6.34 ± 1.1%
CC(C)(C)NC(=O)[C@@H]1CN(Cc2cccnc2)CCN1C[C@@H](O)C[C@@H](Cc1ccccc1)C(=O)N[C@H]1c2ccccc2C[C@H]1O,percent Bodipy-positive cells,[1],7.96 ± 1.5%
CC(O)CC(C)(C)O (stereo not given),percent Bodipy-positive cells,[1],31.2 ± 1.6%
COc1ccc2cc1Oc1ccc(cc1)C[C@H]1c3c(cc4c(c3Oc3cc5c(cc3OC)CCN(C)[C@@H]5C2)OCO4)CCN1C [Cepharanthine],percent Bodipy-positive cells,[1],99.593 ± 0.058%
COc1cc(C(O)C(=O)O)ccc1O (stereo not given),percent Bodipy-positive cells,[1],54.5 ± 12%
CN(C)CC=CC(=O)Nc1cc2c(Nc3ccc(F)c(Cl)c3)ncnc2cc1OC1CCOC1 (stereo not given),percent Bodipy-positive cells,[2],80.7 ± 3%
c1ccc(Cn2c(-c3ccc(OCC(C4CCNCC4)n4c(-c5ccccc5)nc5ccccc54)cc3)nc3ccccc32)cc1 (stereo not given) [Deltarasin],percent Bodipy-positive cells,[3],94.94 ± 0.12%
same,percent Bodipy-positive cells,[1],99.33 ± 0.94%
O=C(Nc1ccc(C(F)(F)F)cn1)N1CCN(c2ncccc2C(F)(F)F)CC1,percent Bodipy-positive cells,[1],9.05 ± 0.77%
CCOC(=O)c1ccc(O)cc1 [Ethyl paraben],percent Bodipy-positive cells,library stock concentration: 12 mM,2.91 ± 1.2%
CC(=O)O[C@H]1Cc2ccccc2N(C(N)=O)c2ccccc21,percent Bodipy-positive cells,[1],15.8 ± 2.7%
CCCCCCC[C@H](O)/C=C/[C@H]1[C@H](O)CC(=O)[C@@H]1C/C=C\CCCC(=O)O [20-ethyl Prostaglandin E2],percent Bodipy-positive cells,[4],18.5 ± 7%
COC(=O)Nc1nc2cc(C(=O)c3ccc(F)cc3)ccc2[nH]1,percent Bodipy-positive cells,[1],99.1 ± 1.3%
COC(=O)Nc1nc2cc(C(=O)c3ccc(F)cc3)ccc2[nH]1 [Flubendazole],percent Bodipy-positive cells,library stock concentration: 6.4 mM,80.5 ± 0.94%
Cc1ccc(-n2[nH]c(C)c(N=Nc3cccc(-c4cccc(C(=O)O)c4)c3O)c2=O)cc1C [Eltrombopag],percent Bodipy-positive cells,[3],2.87 ± 0.43%
same,percent Bodipy-positive cells,[1],6.51 ± 1%
COc1cc(OC)cc(-c2ccc3ncc4ccc(=O)n(-c5ccc(N6CCNCC6)c(C(F)(F)F)c5)c4c3c2)c1,percent Bodipy-positive cells,[5],7.05 ± 0.13%
same,percent Bodipy-positive cells,[6],35.2 ± 3.2%
same,percent Bodipy-positive cells,[2],72 ± 12%
same,percent Bodipy-positive cells,[1],97.76 ± 0.6%
"COc1cc2ncnc(Nc3cccc(O)c3)c2cc1OC [WHI-P180, Hydrochloride]",percent Bodipy-positive cells,[3],13.3 ± 1.3%
O=C1CCc2c(ccc3ccccc23)O1 [Splitomicin],percent Bodipy-positive cells,[1],8.29 ± 3.2%
CC[C@@H]1C(=O)N(C)c2cnc(Nc3ccc(C(=O)NC4CCN(C)CC4)cc3OC)nc2N1C1CCCC1,percent Bodipy-positive cells,[5],18 ± 5.6%
same,percent Bodipy-positive cells,[6],57.1 ± 4.8%
same,percent Bodipy-positive cells,[3],100%
same,percent Bodipy-positive cells,[1],99.5% and 97.4% and 100%
COc1cc2c(Nc3ccc(Br)cc3F)ncnc2cc1OCC1CCN(C)CC1 [Vandetanib (ZD6474)],percent Bodipy-positive cells,[3],95.6 ± 2.3%
O=C1c2ccccc2C(Cc2ccncc2)(Cc2ccncc2)c2ccccc21 [XE 991 dihydrochloride],percent Bodipy-positive cells,[1],9.34 ± 1.3%
O=C(NCCN1CCC(n2c(=O)[nH]c3cc(Cl)ccc32)CC1)c1ccc(F)cc1 [Halopemide],percent Bodipy-positive cells,[4],15.5 ± 6.3%
O=S(=O)(c1cccc2c(Cl)cccc12)N1CCCNCC1,percent Bodipy-positive cells,library stock concentration: 15.4 mM,91.6 ± 1.6%
CNCCc1c[nH]c(CCC(c2ccccc2)c2ccccc2)n1.O=C(O)C(=O)O.O=C(O)C(=O)O [N-Methylhistaprodifen dioxalate salt],percent Bodipy-positive cells,[1],100%
Cc1c(OCC(F)(F)F)ccnc1C[S+]([O-])c1nc2ccccc2[nH]1 (stereo not given) [Lansoprazole],percent Bodipy-positive cells,,8.05 ± 1%
same,percent Bodipy-positive cells,[3],14.7 ± 11%
same,percent Bodipy-positive cells,library stock concentration: 5.4 mM,11.48 ± 0.071%
[N-]=[N+]=Nc1ccc(C(=O)CSC[C@H](NC(=O)CC[C@H](N)C(=O)O)C(=O)NCC(=O)O)cc1 [S-(p-Azidophenacyl)glutathione],percent Bodipy-positive cells,[1],38.4 ± 9.6%
CC(C)(C)NCC(O)c1ccc(O)c(CO)c1 (stereo not given),percent Bodipy-positive cells,[1],5.84 ± 0.098%
CC(C)(C)NCC(O)c1ccc(O)c(CO)c1 (stereo not given) [Albuterol hemisulfate],percent Bodipy-positive cells,[1],25.4 ± 5.2%
CC(C)(C)NCC(O)c1ccc(O)c(CO)c1 (stereo not given) [Salbutamol],percent Bodipy-positive cells,,24.5 ± 0.45%
Nc1nc2c(nc(O)n2[C@@H]2O[C@H](CO)[C@@H](O)[C@H]2O)c(=O)[nH]1 [8-hydroxy Guanosine],percent Bodipy-positive cells,[4],11.5 ± 3.5%
"CO[C@H]1C[C@@H]2CC[C@@H](C)[C@@](O)(O2)C(=O)C(=O)N2CCCC[C@H]2C(=O)O[C@H]([C@H](C)C[C@@H]2CC[C@@H](OP(C)(C)=O)[C@H](OC)C2)CC(=O)[C@H](C)/C=C(\C)[C@@H](O)[C@@H](OC)C(=O)[C@H](C)C[C@H](C)/C=C/C=C/C=C/1C [Ridaforolimus (Deforolimus, MK-8669)]",percent Bodipy-positive cells,[3],3.01 ± 1.9%
same,percent Bodipy-positive cells,[1],17.4 ± 1.7%
CCCCC[C@H](O)CC(=O)CCc1ccc(O)c(OC)c1 [6-Gingerol],percent Bodipy-positive cells,library stock concentration: 17 mM,11 ± 1.2%
COc1cc2ncnc(Nc3cc(Br)c(O)c(Br)c3)c2cc1OC,percent Bodipy-positive cells,[5],7.32 ± 3.3%
same,percent Bodipy-positive cells,[6],9.61 ± 3.6%
same,percent Bodipy-positive cells,[2],8.72 ± 3.1%
same,percent Bodipy-positive cells,[1],4.53 ± 0.57%
CCn1c(=O)n(C2=C(CO)CN(CC3CCCCCCC3)CC2)c2ccccc21,percent Bodipy-positive cells,[1],20.6 ± 7.4%
CCCCCCCC/C=C\CCCCCCCC(=O)O [Oleic Acid],percent Bodipy-positive cells,[4],8.78 ± 1.2%
same,percent Bodipy-positive cells,[1],47 ± 9.4%

# Random excerpt: six records from the list
smiles,measurement,setting,value
CC[C@@H]1C(=O)N(C)c2cnc(Nc3ccc(C(=O)NC4CCN(C)CC4)cc3OC)nc2N1C1CCCC1,percent Bodipy-positive cells,[6],57.1 ± 4.8%
O=C(O[C@@H]1C[C@@H]2C[C@H]3C[C@H](C1)N2CC3=O)c1c[nH]c2ccccc12,percent Bodipy-positive cells,library stock concentration: 10.4 mM,9.71 ± 2%
CCC(=O)NCC[C@@H]1CCc2ccc3c(c21)CCO3 [Ramelteon],percent Bodipy-positive cells,[3],28.45 ± 0.24%
NC1=N[C@@]2(c3cc(NC(=O)c4ccc(F)cn4)ccc3F)COC[C@H]2CS1,percent Bodipy-positive cells,[1],44.1 ± 2.4%
COc1ccc(COc2cc3oc(=O)c4cc(C(C)O)ccc4c3cc2OC)cc1 (stereo not given) [Palomid 529 (P529)],percent Bodipy-positive cells,[3],12.8 ± 2.2%
COc1ccccc1N1CCN(CCN2C(=O)CC3(CCCC3)CC2=O)CC1,percent Bodipy-positive cells,[3],5.7 ± 0.7%
